Results: the supplement of paper PMC8256030
Values joined by “and” are separate entries in the source; they are usually repeats but may differ in a detail not shown here. Equal values may be shown once. The list shows a part of the results. Single values are uncertain here, since repeats match poorly.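 HEK293T cells were given each compound shortly before transfection with a reporter in which red mCherry is followed by the SARS-CoV-2 frameshift element and then GFP in the −1 frame, so GFP appears only after frameshifting.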

Tested on: SARS-CoV-2 -1 PRF reporter mCherry-FSE-GFP(-1)
Test: mCherry (red) intensity as percent of control; higher = higher upstream reporter expression
Settings: 10 µM; 24 h; HEK293T

SMILES	mCherry
CCC[C@@H]1C[C@@H](C(=O)N[C@@H]([C@H]2O[C@H](SC)[C@H](O)[C@@H](O)[C@H]2O)[C@@H](C)O)N(C)C1 [Lincocin]	101%
Nc1nc2c(c(=O)[nH]1)N(C=O)C(CNc1ccc(C(=O)N[C@@H](CCC(=O)O)C(=O)O)cc1)CN2 (stereo partly drawn)	92%
C/C(=C(/CCOC(=O)c1ccccc1)SC(=O)c1ccccc1)N(C=O)Cc1cnc(C)nc1N [bentiamine]	84.1%
CCN[C@H]1C[C@H](C)S(=O)(=O)c2sc(S(N)(=O)=O)cc21 [dorzolamide]	103%
COC(=S)NCCn1c([N+](=O)[O-])cnc1C [carnidazole]	96.5%
Cc1nc2n(c(=O)c1CCN1CCC(c3noc4cc(F)ccc34)CC1)CCCC2O (stereo not drawn) [paliperidone]	87.5% and 110%
CCc1nnc(NS(=O)(=O)c2ccc(N)cc2)s1 [sulfaethidole]	95.8%
COc1c(N2C[C@@H]3CCCN[C@@H]3C2)c(F)cc2c(=O)c(C(=O)O)cn(C3CC3)c12 [moxifloxacin]	96.2%
CCC(NC(C)C)C(O)c1ccc(O)c(O)c1 (stereo not drawn)	118%
CCCNC(C)C(=O)Nc1c(C)csc1C(=O)OC (stereo not drawn) [Articaine]	92.3%
CC1(C)S[C@@H]2[C@H](NC(=O)[C@H](N)c3ccccc3)C(=O)N2[C@H]1C(=O)O [ampicillin]	91.7%
C[C@]12CCC(=O)C=C1C=C[C@@H]1[C@@H]2CC[C@@]2(C)[C@H]1CC[C@@]21CCC(=O)O1 [Canrenone]	85.5%
Cc1ccc(S(=O)(=O)NC(=O)NC2CCCCC2)cc1N [metahexamide]	103%
